# Values from PubChem BioAssay AID652243 (Drosophila RNAi Screening Center, 2013).
# Screen: 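Fly genes required for human androgen receptor driven transcription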 (primary screen)
# Cells: Drosophila S2R+ cells
# Knock-down reagent: long dsRNA against Drosophila genes
# Timing: 72 h (48 h, then 24 h hormone)
# Treatment: synthetic androgen R1881 at 10 nM for 24 h
# Detection: 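Per-well raw luminescence of the androgen-driven firefly reporter and of the Renilla control, two replicates each, without normalisation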
# Reading the numbers: firefly reporter light: higher = more light from androgen-responsive reporter; Renilla control light: higher = more constitutive control signal (cell number, transfection)
# Rule for the call: 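Across duplicate plates, a knock-down whose log firefly/Renilla ratio shifted a set fold down or up from the GFP/LacZ control mean was a hit; the downward cut appears as both 1.5 and 3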
# Calls: active = hit: reporter lowered or raised; inactive = no hit
# The deposit covers about 24,000 reagents; below is a random part of those that have a named target and a result. In the full data, 246 (1%) got an active call. 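Plates not normalised; calls are printed but the firefly/Renilla ratio behind them is not deposited; fold cut for lowering reported inconsistently.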 The raw values are shown without normalisation. The numbers tell different reagents against one gene apart. A plus sign joins genes that one reagent is predicted to hit. Not given: the amount of reagent.
gene knocked down,reagent,"firefly reporter light, replicate 1","firefly reporter light, replicate 2","Renilla control light, replicate 1","Renilla control light, replicate 2",call
Tis11,1,5.25e5,6.33e5,2.54e5,3.31e5,inactive
Lip1,1,2.47e5,2.40e5,1.75e6,1.79e6,inactive
lolal,1,1.19e6,1.43e6,1.88e6,1.72e6,inactive
Vm32E,1,2.57e5,2.35e5,1.55e6,1.98e6,inactive
Vm32E,2,2.49e5,2.45e5,8.04e5,5.17e5,inactive
CG11322,1,2.68e5,2.01e5,3.15e6,2.27e6,inactive
CG11322,2,7.61e5,7.34e5,6.95e5,8.71e5,inactive
CG11322,3,4.89e5,6.66e5,1.97e6,1.88e6,inactive
Jwa,1,7.19e5,7.80e5,2.28e6,2.40e6,inactive
Jwa,2,2.92e5,2.70e5,4.15e5,4.17e5,inactive
mamo,1,5.24e5,5.15e5,5.20e5,4.21e5,inactive
mamo,2,6.94e5,5.56e5,3.60e6,2.95e6,inactive
mamo,3,4.69e5,4.48e5,3.16e6,3.20e6,inactive
mamo,4,2.69e5,3.16e5,2.23e6,1.86e6,inactive
mamo,5,1.41e6,1.54e6,1.60e6,1.83e6,inactive
mamo,6,6.68e5,5.22e5,1.46e6,9.19e5,inactive
mamo,7,6.69e5,5.03e5,7.05e5,5.12e5,inactive
mamo,8,6.70e5,6.95e5,1.58e6,1.67e6,inactive
mus201 + Chrac-14,1,2.05e5,1.38e5,1.72e6,1.41e6,inactive
mus201 + Chrac-14,2,2.54e5,2.09e5,1.86e6,1.83e6,inactive
mle,1,2.84e5,2.68e5,1.11e6,1.23e6,inactive
mino,1,43857,44861,3.79e5,5.11e5,inactive
Ir75b,1,2.21e5,1.78e5,1.81e6,1.69e6,inactive
mRpL47,1,66123,76844,1.17e6,1.88e6,inactive
U2A,1,3.14e5,3.06e5,1.80e6,1.47e6,inactive
U2A,2,5.10e5,5.85e5,1.48e6,1.66e6,inactive

Already shown: 4 of the entries above.
gene knocked down,reagent,"firefly reporter light, replicate 1","firefly reporter light, replicate 2","Renilla control light, replicate 1","Renilla control light, replicate 2",call
Tis11,1,5.25e5,6.33e5,2.54e5,3.31e5,inactive
Lip1,1,2.47e5,2.40e5,1.75e6,1.79e6,inactive
lolal,1,1.19e6,1.43e6,1.88e6,1.72e6,inactive
Vm32E,1,2.57e5,2.35e5,1.55e6,1.98e6,inactive

The results go on.
gene knocked down,reagent,"firefly reporter light, replicate 1","firefly reporter light, replicate 2","Renilla control light, replicate 1","Renilla control light, replicate 2",call
Muc96D,1,4.50e5,4.48e5,1.29e6,1.45e6,inactive
Muc96D,2,2.25e5,4.71e5,7.45e5,1.14e6,inactive
CG33301,1,1.41e5,1.23e5,8.59e5,8.04e5,inactive
CG33301,2,6.43e5,6.39e5,1.08e6,1.07e6,inactive
CG14770,1,2.98e5,2.86e5,4.10e6,3.02e6,inactive
CG42795,1,1.58e5,1.60e5,2.26e5,2.51e5,inactive
CG42795,2,1.06e5,1.56e5,2.17e6,2.29e6,inactive
CG42795,3,8.47e5,6.73e5,1.02e6,1.06e6,inactive
CG12347,1,2.39e5,2.89e5,3.05e6,2.30e6,inactive
Cortactin,1,1.38e5,1.22e5,8.90e5,6.88e5,inactive
Cortactin,2,5.63e5,5.23e5,9.73e5,1.12e6,inactive
Nf1,1,32232,84813,3.29e5,4.85e5,inactive
Nf1,2,8.21e5,8.88e5,1.08e6,1.38e6,inactive
C15,1,2.06e5,1.67e5,5.57e5,5.22e5,inactive
